Reference: the supplement of paper PMC6411743
± gives the standard deviation of the averaged measurements. This is a selection; strong and weak results do not stand in their true shares. Small differences around the control level are noise.

Chains of the proteins cited; added tags and fusions are not shown. Lines headed by an entry give the natural chain unless they say otherwise; changes in a name come on top.
UniProt Q7L523, whole entry: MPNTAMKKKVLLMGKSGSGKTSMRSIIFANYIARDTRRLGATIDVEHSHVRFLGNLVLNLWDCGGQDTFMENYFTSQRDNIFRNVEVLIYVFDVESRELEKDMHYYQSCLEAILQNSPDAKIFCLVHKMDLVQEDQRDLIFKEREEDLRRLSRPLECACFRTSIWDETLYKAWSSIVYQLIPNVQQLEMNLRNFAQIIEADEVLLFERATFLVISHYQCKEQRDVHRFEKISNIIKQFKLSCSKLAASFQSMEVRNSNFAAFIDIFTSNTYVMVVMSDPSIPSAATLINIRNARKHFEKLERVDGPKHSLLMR
UniProt Q7L1Q6: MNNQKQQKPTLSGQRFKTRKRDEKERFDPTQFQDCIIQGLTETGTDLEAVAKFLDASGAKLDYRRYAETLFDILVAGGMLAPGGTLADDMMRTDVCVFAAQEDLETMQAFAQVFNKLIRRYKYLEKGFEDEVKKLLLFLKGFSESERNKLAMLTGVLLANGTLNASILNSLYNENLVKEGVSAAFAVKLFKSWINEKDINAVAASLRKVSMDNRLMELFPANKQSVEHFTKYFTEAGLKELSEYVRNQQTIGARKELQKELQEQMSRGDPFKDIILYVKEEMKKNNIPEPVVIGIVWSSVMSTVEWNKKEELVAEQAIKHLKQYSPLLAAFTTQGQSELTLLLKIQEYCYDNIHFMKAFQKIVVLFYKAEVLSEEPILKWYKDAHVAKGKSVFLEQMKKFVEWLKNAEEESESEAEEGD
UniProt Q6PH81: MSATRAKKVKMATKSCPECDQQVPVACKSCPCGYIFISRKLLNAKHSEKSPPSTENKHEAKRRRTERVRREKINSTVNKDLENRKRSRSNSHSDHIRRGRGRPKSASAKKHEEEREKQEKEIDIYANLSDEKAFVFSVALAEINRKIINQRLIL
UniProt Q5VUA4: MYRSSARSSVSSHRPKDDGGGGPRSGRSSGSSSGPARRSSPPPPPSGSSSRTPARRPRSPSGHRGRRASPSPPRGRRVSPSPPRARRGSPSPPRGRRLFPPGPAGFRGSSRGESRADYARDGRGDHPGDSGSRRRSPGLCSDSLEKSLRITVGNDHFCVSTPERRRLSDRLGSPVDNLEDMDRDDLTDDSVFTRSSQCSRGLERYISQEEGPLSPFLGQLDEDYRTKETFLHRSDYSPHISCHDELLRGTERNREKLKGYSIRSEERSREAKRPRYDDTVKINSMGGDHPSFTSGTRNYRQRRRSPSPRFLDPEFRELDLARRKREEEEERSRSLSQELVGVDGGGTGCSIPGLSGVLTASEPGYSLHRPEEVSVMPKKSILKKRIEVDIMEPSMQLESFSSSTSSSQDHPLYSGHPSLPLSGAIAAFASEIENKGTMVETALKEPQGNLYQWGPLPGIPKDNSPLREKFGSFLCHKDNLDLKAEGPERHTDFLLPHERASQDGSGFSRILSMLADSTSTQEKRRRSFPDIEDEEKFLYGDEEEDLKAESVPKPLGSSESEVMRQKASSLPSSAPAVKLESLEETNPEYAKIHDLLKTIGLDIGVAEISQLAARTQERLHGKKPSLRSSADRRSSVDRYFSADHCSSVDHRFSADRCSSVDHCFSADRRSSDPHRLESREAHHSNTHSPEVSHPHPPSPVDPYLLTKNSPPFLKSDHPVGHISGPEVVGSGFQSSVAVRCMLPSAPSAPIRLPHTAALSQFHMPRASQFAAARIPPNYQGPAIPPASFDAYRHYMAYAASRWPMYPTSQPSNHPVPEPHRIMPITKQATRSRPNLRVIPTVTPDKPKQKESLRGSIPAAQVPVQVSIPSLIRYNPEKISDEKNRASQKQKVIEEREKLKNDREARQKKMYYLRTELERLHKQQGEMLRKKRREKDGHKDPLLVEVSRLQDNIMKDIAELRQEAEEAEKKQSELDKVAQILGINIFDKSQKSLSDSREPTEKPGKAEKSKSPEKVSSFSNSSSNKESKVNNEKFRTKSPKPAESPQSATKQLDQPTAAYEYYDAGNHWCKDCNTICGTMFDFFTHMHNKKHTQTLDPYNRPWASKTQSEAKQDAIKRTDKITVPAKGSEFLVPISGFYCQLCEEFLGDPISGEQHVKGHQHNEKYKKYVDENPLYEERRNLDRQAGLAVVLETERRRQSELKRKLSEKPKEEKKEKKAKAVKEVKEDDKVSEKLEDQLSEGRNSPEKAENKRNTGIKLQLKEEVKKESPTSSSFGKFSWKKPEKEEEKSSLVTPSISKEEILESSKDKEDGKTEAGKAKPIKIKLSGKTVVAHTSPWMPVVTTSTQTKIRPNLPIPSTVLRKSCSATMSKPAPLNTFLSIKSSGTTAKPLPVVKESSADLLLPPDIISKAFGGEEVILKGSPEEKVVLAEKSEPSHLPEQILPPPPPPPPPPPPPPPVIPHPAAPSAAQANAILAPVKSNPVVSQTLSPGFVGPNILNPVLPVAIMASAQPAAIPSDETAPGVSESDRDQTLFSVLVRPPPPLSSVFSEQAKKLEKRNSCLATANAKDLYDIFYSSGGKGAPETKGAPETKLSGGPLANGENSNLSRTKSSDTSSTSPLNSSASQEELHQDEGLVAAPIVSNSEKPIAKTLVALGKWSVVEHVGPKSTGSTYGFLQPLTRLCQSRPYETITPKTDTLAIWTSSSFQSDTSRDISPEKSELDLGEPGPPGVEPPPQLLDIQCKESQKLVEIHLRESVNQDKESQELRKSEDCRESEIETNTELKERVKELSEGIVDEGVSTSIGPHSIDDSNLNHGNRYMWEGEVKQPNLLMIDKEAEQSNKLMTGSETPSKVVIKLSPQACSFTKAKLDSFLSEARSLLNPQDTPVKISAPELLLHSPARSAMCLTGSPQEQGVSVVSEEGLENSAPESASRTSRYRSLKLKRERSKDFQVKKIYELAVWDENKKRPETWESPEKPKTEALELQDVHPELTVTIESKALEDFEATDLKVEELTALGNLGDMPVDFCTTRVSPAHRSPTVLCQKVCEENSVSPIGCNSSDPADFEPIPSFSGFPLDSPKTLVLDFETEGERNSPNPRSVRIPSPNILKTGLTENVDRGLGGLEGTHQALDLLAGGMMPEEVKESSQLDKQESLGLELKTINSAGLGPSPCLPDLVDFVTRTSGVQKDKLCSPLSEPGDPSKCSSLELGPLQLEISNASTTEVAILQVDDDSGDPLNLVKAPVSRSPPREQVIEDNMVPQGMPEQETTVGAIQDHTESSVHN
UniProt Q7Z3K3: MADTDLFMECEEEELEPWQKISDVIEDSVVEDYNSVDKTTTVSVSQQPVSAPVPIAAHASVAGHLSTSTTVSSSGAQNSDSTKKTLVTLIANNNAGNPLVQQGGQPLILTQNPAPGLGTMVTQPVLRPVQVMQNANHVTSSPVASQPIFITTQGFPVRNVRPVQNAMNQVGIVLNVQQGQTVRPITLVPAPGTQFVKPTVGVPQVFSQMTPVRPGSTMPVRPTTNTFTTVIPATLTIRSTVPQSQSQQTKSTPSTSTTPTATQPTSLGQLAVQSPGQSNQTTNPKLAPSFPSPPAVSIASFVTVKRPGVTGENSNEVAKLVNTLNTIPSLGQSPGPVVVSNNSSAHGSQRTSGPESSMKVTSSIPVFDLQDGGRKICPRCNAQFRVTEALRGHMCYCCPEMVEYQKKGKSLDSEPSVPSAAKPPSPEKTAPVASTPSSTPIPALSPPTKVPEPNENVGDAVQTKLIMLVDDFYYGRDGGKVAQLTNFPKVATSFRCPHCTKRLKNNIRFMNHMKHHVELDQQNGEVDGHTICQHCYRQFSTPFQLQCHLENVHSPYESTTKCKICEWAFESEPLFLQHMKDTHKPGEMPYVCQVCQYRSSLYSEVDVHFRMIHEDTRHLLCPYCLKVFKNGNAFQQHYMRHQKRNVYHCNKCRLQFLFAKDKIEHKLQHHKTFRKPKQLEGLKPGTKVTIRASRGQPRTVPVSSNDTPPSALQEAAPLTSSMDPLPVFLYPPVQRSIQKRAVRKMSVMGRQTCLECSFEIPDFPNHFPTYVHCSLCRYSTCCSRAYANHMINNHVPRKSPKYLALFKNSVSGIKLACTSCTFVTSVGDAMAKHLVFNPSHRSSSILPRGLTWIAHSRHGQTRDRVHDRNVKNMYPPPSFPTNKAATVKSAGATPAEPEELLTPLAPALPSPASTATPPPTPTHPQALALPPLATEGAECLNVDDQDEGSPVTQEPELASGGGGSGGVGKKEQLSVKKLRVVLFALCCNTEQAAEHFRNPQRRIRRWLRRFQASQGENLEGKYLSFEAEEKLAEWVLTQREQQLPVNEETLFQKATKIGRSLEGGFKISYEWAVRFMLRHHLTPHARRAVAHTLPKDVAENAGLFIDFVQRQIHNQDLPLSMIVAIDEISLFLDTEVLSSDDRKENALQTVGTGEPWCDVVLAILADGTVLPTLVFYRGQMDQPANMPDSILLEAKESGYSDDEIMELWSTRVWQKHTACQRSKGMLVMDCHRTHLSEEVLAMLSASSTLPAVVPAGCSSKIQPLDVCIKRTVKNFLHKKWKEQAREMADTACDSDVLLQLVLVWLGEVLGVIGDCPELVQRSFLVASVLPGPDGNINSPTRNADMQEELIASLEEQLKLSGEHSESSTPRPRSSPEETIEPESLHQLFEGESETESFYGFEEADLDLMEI
UniProt Q5W0V3: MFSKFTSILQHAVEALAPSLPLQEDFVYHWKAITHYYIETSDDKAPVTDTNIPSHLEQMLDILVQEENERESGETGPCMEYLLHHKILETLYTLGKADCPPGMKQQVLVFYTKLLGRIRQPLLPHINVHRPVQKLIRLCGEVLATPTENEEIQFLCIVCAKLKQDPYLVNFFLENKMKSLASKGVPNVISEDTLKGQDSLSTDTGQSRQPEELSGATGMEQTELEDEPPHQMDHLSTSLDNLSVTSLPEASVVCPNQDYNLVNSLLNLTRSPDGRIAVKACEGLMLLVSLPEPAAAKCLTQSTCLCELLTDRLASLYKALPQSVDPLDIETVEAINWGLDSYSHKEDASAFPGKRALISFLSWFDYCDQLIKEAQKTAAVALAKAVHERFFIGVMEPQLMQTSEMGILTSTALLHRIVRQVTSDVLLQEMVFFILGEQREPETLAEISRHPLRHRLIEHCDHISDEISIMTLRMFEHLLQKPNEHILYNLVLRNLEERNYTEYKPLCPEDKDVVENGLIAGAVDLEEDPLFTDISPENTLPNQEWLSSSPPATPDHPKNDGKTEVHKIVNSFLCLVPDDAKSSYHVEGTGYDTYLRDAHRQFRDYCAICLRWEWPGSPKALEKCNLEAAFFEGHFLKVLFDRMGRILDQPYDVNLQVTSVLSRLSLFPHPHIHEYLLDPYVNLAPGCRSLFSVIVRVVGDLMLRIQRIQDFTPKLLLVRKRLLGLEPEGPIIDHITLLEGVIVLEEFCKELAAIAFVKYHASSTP
UniProt Q6PL24: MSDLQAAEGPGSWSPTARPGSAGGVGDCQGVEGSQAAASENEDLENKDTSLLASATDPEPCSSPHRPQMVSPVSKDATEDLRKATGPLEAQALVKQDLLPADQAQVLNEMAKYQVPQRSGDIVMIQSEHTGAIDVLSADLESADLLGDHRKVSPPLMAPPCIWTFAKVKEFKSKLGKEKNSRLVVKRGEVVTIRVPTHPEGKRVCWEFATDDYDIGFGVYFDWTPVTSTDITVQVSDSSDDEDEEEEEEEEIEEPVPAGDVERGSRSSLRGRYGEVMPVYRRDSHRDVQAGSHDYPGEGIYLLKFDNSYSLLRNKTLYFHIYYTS
UniProt Q6UWP2: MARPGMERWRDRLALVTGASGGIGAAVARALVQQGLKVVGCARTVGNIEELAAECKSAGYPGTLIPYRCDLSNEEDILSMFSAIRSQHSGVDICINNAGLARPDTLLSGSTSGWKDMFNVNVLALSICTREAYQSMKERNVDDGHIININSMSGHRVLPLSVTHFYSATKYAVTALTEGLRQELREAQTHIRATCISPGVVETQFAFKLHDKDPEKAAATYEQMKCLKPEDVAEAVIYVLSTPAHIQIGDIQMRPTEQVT
UniProt Q6QNY0: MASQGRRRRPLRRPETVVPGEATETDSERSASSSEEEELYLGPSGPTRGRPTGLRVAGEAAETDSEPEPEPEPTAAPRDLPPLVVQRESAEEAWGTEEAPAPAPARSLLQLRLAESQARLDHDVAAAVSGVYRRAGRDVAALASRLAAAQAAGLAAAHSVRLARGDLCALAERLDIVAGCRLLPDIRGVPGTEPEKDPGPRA
UniProt Q66LE6: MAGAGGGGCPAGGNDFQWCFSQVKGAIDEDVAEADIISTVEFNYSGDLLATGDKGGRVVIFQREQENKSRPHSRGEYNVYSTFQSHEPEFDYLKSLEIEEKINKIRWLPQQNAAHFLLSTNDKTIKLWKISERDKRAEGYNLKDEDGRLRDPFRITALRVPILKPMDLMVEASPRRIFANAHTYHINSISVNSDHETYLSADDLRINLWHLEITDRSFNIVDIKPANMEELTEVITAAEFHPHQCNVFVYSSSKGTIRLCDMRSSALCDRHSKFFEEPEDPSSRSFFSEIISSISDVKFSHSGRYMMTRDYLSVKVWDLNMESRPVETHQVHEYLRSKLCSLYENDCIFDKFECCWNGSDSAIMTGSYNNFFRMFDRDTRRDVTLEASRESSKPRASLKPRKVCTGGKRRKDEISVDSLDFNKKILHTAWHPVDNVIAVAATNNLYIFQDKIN

Compound: Nc1ncnc2c1ncn2[C@@H]1O[C@H](COP(=O)(O)OP(=O)(O)NP(=O)(O)O)[C@@H](O)[C@H]1O [adenylyl imidodiphosphate]
Assay: NP40-soluble protein abundance relative to vehicle (solubility fold change) (ratio); higher = more soluble protein in presence of AMP-PNP
Summary of the method: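 Eight concentrations, 0.1 to 10 mM, were tested on Jurkat crude lysate for 10 min at room temperature and then 3 min at 37 °C, in three independent experiments. The lysate was solubilised with 0.8% NP40 and benzonase, ultracentrifuged, and the supernatant TMT-labelled for LC-MS/MS. Each value is the fold change against the detergent-processed vehicle in its own replicate, from vsn-normalised intensities.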

Target	NP40-soluble protein abundance (concentration: 0.1mM)	NP40-soluble protein abundance (concentration: 0.5mM)
UniProt Q6ZRS2 and related entries	0.976 ± 0.035	1.02 ± 0.046
SNX30 (UniProt Q5VWJ9)	0.976 ± 0.022	0.997 ± 0.003
RFWD3 (UniProt Q6PCD5)	1.003 ± 0.0027	0.98 ± 0.013
UniProt Q70UQ0 and related entries	1 ± 0.075	0.999 ± 0.048
UniProt Q7L0J3 and related entries	1.03 ± 0.028	0.972 ± 0.013
UniProt Q7L523	1.07 ± 0.029	1.05 ± 0.03
UniProt Q5VYS8 and related entries	1.016 ± 0.0097	1.01 ± 0.02
UniProt Q6PHR2 and related entries	0.984 ± 0.035	1 ± 0.021
LYPLAL1 (UniProt Q5VWZ2)	1.02 ± 0.025	0.977 ± 0.04
UniProt Q6ZWJ1 and related entries	0.971 ± 0.028	0.996 ± 0.032
USP34 (UniProt Q70CQ2)	0.98 ± 0.038	0.938 ± 0.054
UniProt Q69YN4	1.01 ± 0.029	1 ± 0.06
TYW3 (UniProt Q6IPR3)	1.02 ± 0.065	1.01 ± 0.042
UniProt Q7L1Q6	0.985 ± 0.04	1.01 ± 0.037
RAB12 (UniProt Q6IQ22)	1 ± 0.051	1.01 ± 0.032
UniProt Q6DHV7 and related entries	1 ± 0.026	1.01 ± 0.012
TAOK1 (UniProt Q7L7X3)	1.01 ± 0.033	1.02 ± 0.016
PRPF8 (UniProt Q6P2Q9)	1.08 ± 0.034	1.01 ± 0.13
UniProt Q7Z406 and related entries	1.02 ± 0.044	1.05 ± 0.079
UniProt Q6P3S6 and related entries	0.991 ± 0.011	1.01 ± 0.047
C16orf87 (UniProt Q6PH81)	0.971 ± 0.021	0.982 ± 0.055
UniProt Q6PII3 and related entries	0.983 ± 0.013	0.974 ± 0.018
ANKRD16 (UniProt Q6P6B7)	1 ± 0.033	0.996 ± 0.022
LMBRD2 (UniProt Q68DH5)	0.979 ± 0.061	1 ± 0.019

Target	NP40-soluble protein abundance (concentration: 0.1mM)	NP40-soluble protein abundance (concentration: 0.5mM)
UniProt Q7Z392	1.02 ± 0.045	0.992 ± 0.052
UniProt Q6P087 and related entries	0.987 ± 0.021	0.991 ± 0.034
UniProt Q6NYC1 and related entries	1.03 ± 0.011	1.01 ± 0.02
UniProt Q71RC2 and related entries	1.022 ± 0.0017	1.01 ± 0.031
ZNF318 (UniProt Q5VUA4)	0.974 ± 0.04	0.969 ± 0.042
UniProt Q7Z3K3 and related entries	1.01 ± 0.011	1.021 ± 0.0081
UniProt Q6ZT12 and related entries	1.03 ± 0.029	0.984 ± 0.012
FAM160B1 (UniProt Q5W0V3)	1.02 ± 0.039	1.02 ± 0.043
CDKAL1 (UniProt Q5VV42)	1 ± 0.029	0.978 ± 0.039
UniProt Q5VT52 and related entries	0.99 ± 0.025	1.01 ± 0.042
LIN54 (UniProt Q6MZP7)	0.984 ± 0.023	1.01 ± 0.054
TMED8 (UniProt Q6PL24)	1.02 ± 0.019	1.01 ± 0.012
UniProt Q6ICG6 and related entries	1.01 ± 0.045	1 ± 0.054
UniProt Q5W0B1	1 ± 0.022	1.01 ± 0.058
DHRS11 (UniProt Q6UWP2)	1.01 ± 0.016	1.01 ± 0.022
METTL2B (UniProt Q6P1Q9)	1.003 ± 0.0024	1.009 ± 0.0096
BLOC1S3 (UniProt Q6QNY0)	1.02 ± 0.033	0.989 ± 0.055
UniProt Q5VZI3 and related entries	1.02 ± 0.02	1 ± 0.024
MED13L (UniProt Q71F56)	1.01 ± 0.028	1.01 ± 0.025
UniProt Q6P4E1-2|Q6P4E1-4|Q6P4E1-5|Q6P4E1	0.977 ± 0.047	1 ± 0.071
UniProt Q6IN85	1.003 ± 0.0032	1 ± 0.013
UniProt Q709C8 and related entries	0.991 ± 0.043	0.959 ± 0.08
PPP2R2D (UniProt Q66LE6)	1.009 ± 0.0063	0.963 ± 0.015
UniProt Q7Z422 and related entries	1.03 ± 0.042	1.05 ± 0.026

2 entries drawn at random from those above, as already listed:
Target	NP40-soluble protein abundance (concentration: 0.1mM)	NP40-soluble protein abundance (concentration: 0.5mM)
UniProt Q6ICG6 and related entries	1.01 ± 0.045	1 ± 0.054
LIN54 (UniProt Q6MZP7)	0.984 ± 0.023	1.01 ± 0.054
